The record followed here is US20160122742A1 (published 2016).

This assay concerns the target T1, Flag tagged full length Obi1 protein (human) (UniProt Q5W0B1).
T1 sequence: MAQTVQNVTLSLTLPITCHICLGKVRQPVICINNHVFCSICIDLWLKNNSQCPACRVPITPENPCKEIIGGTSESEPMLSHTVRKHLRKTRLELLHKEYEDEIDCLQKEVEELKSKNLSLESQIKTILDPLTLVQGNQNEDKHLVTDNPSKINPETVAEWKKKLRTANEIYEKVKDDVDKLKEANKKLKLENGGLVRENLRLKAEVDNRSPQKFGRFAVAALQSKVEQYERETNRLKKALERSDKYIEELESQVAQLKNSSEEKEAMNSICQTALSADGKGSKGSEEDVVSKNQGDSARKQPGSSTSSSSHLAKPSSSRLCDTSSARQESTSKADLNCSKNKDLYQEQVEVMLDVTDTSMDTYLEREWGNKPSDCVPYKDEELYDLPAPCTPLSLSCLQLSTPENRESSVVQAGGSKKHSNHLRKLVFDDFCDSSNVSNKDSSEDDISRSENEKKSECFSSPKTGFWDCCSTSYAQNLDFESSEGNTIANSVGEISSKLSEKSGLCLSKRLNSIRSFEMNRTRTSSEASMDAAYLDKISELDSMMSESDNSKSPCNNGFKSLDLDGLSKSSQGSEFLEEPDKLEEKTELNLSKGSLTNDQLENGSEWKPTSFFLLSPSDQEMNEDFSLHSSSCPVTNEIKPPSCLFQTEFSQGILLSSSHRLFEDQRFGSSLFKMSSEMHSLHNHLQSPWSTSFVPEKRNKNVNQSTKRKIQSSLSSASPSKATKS
The assay is described as follows: anti-Flag co-immunoprecipitation from transfected U2OS cells, western blot with anti-Myc.

No constants are given. Whether binding was seen depends on the method and setting. In cells and extracts the contact can be indirect. Some results given as binding are weak or reduced against the parent protein; the word gives no strength. Where a sequence is shown, tags or fusion partners need not be part of it.

B1: Myc-NES-Obi1(1-280) (protein, not shown: small tags and cut ends)
chain: MEQKLISEEDLNEMEQKLISEEDLNEMEQKLISEEDLNEMEQKLISEEDLNEMEQKLISEEDLNEMESLGDLTMSLALKLAGLDIGSMAQTVQNVTLSLTLPITCHICLGKVRQPVICINNHVFCSICIDLWLKNNSQCPACRVPITPENPCKEIIGGTSESEPMLSHTVRKHLRKTRLELLHKEYEDEIDCLQKEVEELKSKNLSLESQIKTILDPLTLVQGNQNEDKHLVTDNPSKINPETVAEWKKKLRTANEIYEKVKDDVDKLKEANKKLKLENGGLVRENLRLKAEVDNRSPQKFGRFAVAALQSKVEQYERETNRLKKALERSDKYIEELESQVAQLKNSSEEKEAMNSICQTALSADGK
Consider B1, for which the binding entry is recorded as “binds”.
